Paper PMC9192595

Assays:
[1] = target: T1, BRCA2OB (human) (UniProt P51587); experiment: EMSA; conditions: EMSA: 10 nM probe, 50 mM Tris-HCl pH 7.5, 100 mM KCl, 2 mM b-ME, 10% glycerol, probe pre-incubated 37 C, gel 4 C (RAD51: +1 mM MgCl2, 2 mM ATP), recombinant protein, residues 2665-3197, protein details: N-MBP, C-6xHis, label: 5' 32P, folded or branched DNA
T1 sequence (looked up): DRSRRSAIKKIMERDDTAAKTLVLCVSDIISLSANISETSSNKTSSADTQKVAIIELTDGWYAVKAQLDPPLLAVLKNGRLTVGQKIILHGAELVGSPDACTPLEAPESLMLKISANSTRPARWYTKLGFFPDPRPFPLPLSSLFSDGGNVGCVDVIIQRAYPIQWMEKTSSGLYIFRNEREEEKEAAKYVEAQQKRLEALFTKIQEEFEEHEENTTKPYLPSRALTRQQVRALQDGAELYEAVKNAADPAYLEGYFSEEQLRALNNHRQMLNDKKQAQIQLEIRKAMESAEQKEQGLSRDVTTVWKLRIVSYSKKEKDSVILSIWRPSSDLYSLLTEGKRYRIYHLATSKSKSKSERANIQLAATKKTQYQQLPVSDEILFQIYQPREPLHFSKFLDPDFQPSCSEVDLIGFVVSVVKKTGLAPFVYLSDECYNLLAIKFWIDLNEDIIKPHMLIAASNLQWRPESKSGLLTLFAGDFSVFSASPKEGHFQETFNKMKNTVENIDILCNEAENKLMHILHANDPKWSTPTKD

[2] = target: T2, BRCA2OB-D2723H (human) (UniProt P51587); experiment: EMSA; conditions: EMSA: 10 nM probe, 50 mM Tris-HCl pH 7.5, 100 mM KCl, 2 mM b-ME, 10% glycerol, probe pre-incubated 37 C, gel 4 C (RAD51: +1 mM MgCl2, 2 mM ATP), recombinant protein, residues 2665-3197, protein details: N-MBP, C-6xHis, label: 5' 32P, folded or branched DNA
T2 sequence (looked up): T1 sequence (looked up) with D59H

[3] = target: T3, BRCA2OB-R2973C (human) (UniProt P51587); experiment: EMSA; conditions: EMSA: 10 nM probe, 50 mM Tris-HCl pH 7.5, 100 mM KCl, 2 mM b-ME, 10% glycerol, probe pre-incubated 37 C, gel 4 C (RAD51: +1 mM MgCl2, 2 mM ATP), recombinant protein, residues 2665-3197, protein details: N-MBP, C-6xHis, label: 5' 32P, folded or branched DNA
T3 sequence (looked up): T1 sequence (looked up) with R309C

[4] = target: RAD51 (human) (UniProt Q06609); experiment: EMSA; conditions: 1 mM MgCl2, 2 mM ATP, complex only at 250 nM RAD51, 25 nM BRCA2OB present; EMSA: 10 nM probe, 50 mM Tris-HCl pH 7.5, 100 mM KCl, 2 mM b-ME, 10% glycerol, probe pre-incubated 37 C, gel 4 C (RAD51: +1 mM MgCl2, 2 mM ATP); commercial protein; label: 5' 32P; folded or branched DNA
[5] = target: 2xMBP-BRCA2 R2973C (UniProt P51587); experiment: pull-down, dot blot; conditions: abrogated; smFRET: 50 mM Tris-HCl pH 7.9, 100 mM KCl, 20 mM NaCl, 1 mM DTT, 0.1 mg/ml BSA, 9% glycerol, 37 C; protein in a lysate after overexpression; residues 1-3418; protein details: 2xMBP; label: 5' 32P; folded or branched DNA
[6] = target: 2xMBP-BRCA2 full length (UniProt P51587); experiment: pull-down, dot blot; conditions: smFRET: 50 mM Tris-HCl pH 7.9, 100 mM KCl, 20 mM NaCl, 1 mM DTT, 0.1 mg/ml BSA, 9% glycerol, 37 C, protein in a lysate after overexpression, residues 1-3418, protein details: 2xMBP, label: 5' 32P, folded or branched DNA
[7] = target: EGFP-BRCA2 full length (NFLAP-BRCA2) (UniProt P51587); experiment: pull-down, dot blot; conditions: 100 mM KCl, smFRET: 50 mM Tris-HCl pH 7.9, 100 mM KCl, 20 mM NaCl, 1 mM DTT, 0.1 mg/ml BSA, 9% glycerol, 37 C, protein in a lysate after overexpression, residues 1-3418, protein details: NFLAP (EGFP), label: 5' 32P, folded or branched DNA
[8] = target: T1, BRCA2OB (human); experiment: smFRET; conditions: 3' amino, stem 5' amino, smFRET: 50 mM Tris-HCl pH 7.9, 100 mM KCl, 20 mM NaCl, 1 mM DTT, 0.1 mg/ml BSA, 9% glycerol, 37 C, recombinant protein, residues 2665-3197, protein details: N-MBP, C-6xHis, label: 3' Cy3, stem 5' Cy5, 3' biotin

GGTTAGGGTTAGGGTTAGGGTTAGGGTTAG [TelG5]
binding result ([1]; PDS (G4 ligand) present, dose-dependent): binds more weakly
binding result [2]: binds more weakly
binding result [3]: binds more weakly
binding result [4]: binds more weakly
binding result [5]: no binding
binding result ([6]; third): binds
binding result ([7]; third): binds

GGTTTGGGTTTGGGTTTGGGTTTGGGTTTG [TelG5TTT]
binding result [2]: binds more weakly
binding result [3]: binds more weakly
binding result [4]: binds more weakly
binding result [5]: no binding
binding result ([6]; strongest): binds
binding result ([7]; strongest): binds

GCGTGGCACCGGTAATAGGAGATAGGAGAGGTTTGGGTTTGGGTTTGTGTTTGGGTTTG / TCTCCTATCTCCTATTACCGGTGCCACGC [TelG5TTT-G3 smFRET]
binding result ([8]; 1 uM BRCA2OB): binds

GCGTGGCACCGGTAATAGGAGATAGGAGAGGTTAGGGTTAGGGTTAGTGTTAGGGTTAG / TCTCCTATCTCCTATTACCGGTGCCACGC [TelG5-G3 smFRET]
binding result ([8]; 1 uM BRCA2OB): binds

GCGTGGCACCGGTAATAGGAGATAGGAGAGGTAAGGGTAAGGGTAAGGGTAAGGGTAAG / TCTCCTATCTCCTATTACCGGTGCCACGC [TelG5TAA smFRET]
binding result ([8]; lower bound fraction, 0.1 and 1 uM): binds more weakly

GGTTAGGGTTAGGGTTAGGGTTAG [TelG4]
binding result ([1]; slight binding, 100 mM KCl): binds more weakly

TTGAGGGTGGGGAGGGTGGGGAATT [c-myc]
binding result [1]: binds more weakly

GGTTAGGGTTAGGGTTAGTGTTAGGGTTAG [TelG5-G3]
binding result ([2]; abrogated similarly): binds more weakly
binding result ([3]; abrogated similarly): binds more weakly
binding result [5]: no binding
binding result ([6]; second): binds

GAACTGGGACTGGGATAGGGCTAGGGAAGC [GGG4]
binding result [1]: binds more weakly

GGTTGGGGTTGGGGTTGGGGTTGGGGTTGG [TelG5T2G4]
binding result [2]: binds more weakly
binding result [3]: binds more weakly
binding result ([7]; second): binds

GGTAAGGGTAAGGGTAAGGGTAAGGGTAAG [TelG5TAA]
binding result ([1]; weakest, if at all, 100 mM KCl): binds more weakly

Positions count from the first letter of the chain named. For part of these data: Weaker means in comparison with the reference protein, sequence or condition of that experiment. For part of these data: Where a protein sequence is shown, tags need not be part of it. For part of these data: At least one result comes from cells or an extract, where the contact may be indirect. For part of these data: No signal at the amounts used counts as a negative. For part of these data: At least one verdict was read from the data and is not stated in words by the source. For part of these data: The exact form of at least one protein or probe is not confirmed.
